PubChem BioAssay AID504774 | Drosophila RNAi Screening Center, 2011
The screen tested about 23,000 reagents; this is an unselected part of those that have a named target and a result. 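Values are quantile-normalised luminescence on an arbitrary scale; higher means more cells surviving MMS.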 Reagents against one gene are numbered here. Not all columns of the deposit are shown. No sequences are given here.

- Assay: 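Genes required for cells to withstand methyl methanesulphonate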 (primary screen)
- Cell system: Drosophila Kc167 cells
- Reagent: long dsRNA against Drosophila genes, about 0.25 µg dsRNA per well
- Timing: about 6 days: 3 days knock-down, then 3 days with or without MMS
- Treatment: methyl methanesulphonate 0.004% (w/v) for 3 days after knock-down
- Read-out: 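Viability in wells given MMS, read as ATP luminescence, normalised by quantiles plate by plate and averaged across replicates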
- Scale: mean viability with MMS and viability with MMS: higher = more surviving cells after MMS

no.	gene	reagent	mean viability with MMS	viability with MMS, replicate 1
1	rst	1	3.54e6	4.00e6
2	rst	2	3.48e6	4.04e6
3	inv	1	3.38e6	3.86e6
4	Ilp8	1	3.44e6	3.83e6
5	Mos	1	3.46e6	3.99e6
6	CG42266	1	3.47e6	4.00e6
7	CG42266	2	3.49e6	3.97e6
8	BomBc1	1	3.58e6	3.99e6
9	CG3386	1	3.50e6	3.98e6
10	CG42324	1	3.49e6	3.95e6
11	CG42324	2	3.52e6	4.00e6
12	DAT	1	3.68e6	4.12e6
13	garz	1	3.32e6	3.48e6
14	CG5111	1	3.53e6	3.96e6
15	Actn	1	3.58e6	4.06e6
16	RtGEF	1	3.40e6	3.80e6
17	RtGEF	2	3.66e6	4.12e6
18	Alp7	1	3.15e6	3.68e6
19	CG14857	1	3.64e6	4.23e6
20	CG31715	1	3.76e6	4.31e6
21	Med	1	3.05e6	3.68e6
22	CG13471	1	3.53e6	4.05e6
23	CG31464	1	3.57e6	4.12e6
24	CG18649	1	3.62e6	4.15e6
25	CG14671	1	3.66e6	4.07e6
26	Nepl21	1	3.44e6	3.88e6
27	CG1640	1	3.58e6	3.94e6
28	Sec20	1	3.46e6	3.96e6

Sorted by “viability with MMS, replicate 1” (high to low): 4 of the entries above.
gene	reagent	mean viability with MMS	viability with MMS, replicate 1
DAT	1	3.68e6	4.12e6
CG42324	2	3.52e6	4.00e6
CG42324	1	3.49e6	3.95e6
garz	1	3.32e6	3.48e6
